Test results taken from article PMC8287938, “Identification and structural analysis of the Schizosaccharomyces pombe SMN complex” (Nucleic Acids Research, 2021).
These are yes or no findings as the source states them, for the method shown. Binding seen in cells or lysates may run through a third protein. Here binding means that the protein was enriched with, or labelled near, the bait; the list need not be complete.

Chains of the proteins cited; added tags and fusions are not shown. Lines headed by an entry give the natural chain unless they say otherwise; changes in a name come on top.
UniProt G2TRK8: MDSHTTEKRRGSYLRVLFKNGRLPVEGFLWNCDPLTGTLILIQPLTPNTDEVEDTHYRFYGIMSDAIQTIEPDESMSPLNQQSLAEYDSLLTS
UniProt G2TRR1: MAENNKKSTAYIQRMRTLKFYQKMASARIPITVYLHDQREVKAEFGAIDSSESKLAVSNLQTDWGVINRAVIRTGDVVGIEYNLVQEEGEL
UniProt Q9USY8: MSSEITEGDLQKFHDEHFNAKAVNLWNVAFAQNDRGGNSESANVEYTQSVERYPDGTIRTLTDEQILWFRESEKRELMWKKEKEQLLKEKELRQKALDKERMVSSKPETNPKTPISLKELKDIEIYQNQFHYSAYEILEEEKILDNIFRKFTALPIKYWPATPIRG

Target: GFP-SpG6 (S. pombe) (UniProt G2TRK8)
Experiment: affinity purification with mass spectrometry; GFP-Trap beads, extract of S. pombe cells expressing GFP-SpG6 as sole source of SpG6; 10 mM Tris/Cl pH 7.5, 150 mM NaCl, 0.5 mM EDTA, 4 h at 4°C; SDS-PAGE and mass spectrometry

| Substance | binding |
| --- | --- |
| SpG7 (endogenous) (from UniProt G2TRR1) | binds |
| SpG8 (endogenous) (from UniProt Q9USY8) | binds |
